Results reported in paper PMC4858745.
These are yes or no findings as the source states them, for the method shown. In cells and extracts the contact can be indirect. Some results given as binding are weak or reduced against the parent protein; the word gives no strength. For part of these data: Tags and fused reporters may be left off the sequences shown.

Amino acid sequences for entries named in this document (tags omitted). Residues count along the entry.
UniProt Q9QUK6, residues 26-835: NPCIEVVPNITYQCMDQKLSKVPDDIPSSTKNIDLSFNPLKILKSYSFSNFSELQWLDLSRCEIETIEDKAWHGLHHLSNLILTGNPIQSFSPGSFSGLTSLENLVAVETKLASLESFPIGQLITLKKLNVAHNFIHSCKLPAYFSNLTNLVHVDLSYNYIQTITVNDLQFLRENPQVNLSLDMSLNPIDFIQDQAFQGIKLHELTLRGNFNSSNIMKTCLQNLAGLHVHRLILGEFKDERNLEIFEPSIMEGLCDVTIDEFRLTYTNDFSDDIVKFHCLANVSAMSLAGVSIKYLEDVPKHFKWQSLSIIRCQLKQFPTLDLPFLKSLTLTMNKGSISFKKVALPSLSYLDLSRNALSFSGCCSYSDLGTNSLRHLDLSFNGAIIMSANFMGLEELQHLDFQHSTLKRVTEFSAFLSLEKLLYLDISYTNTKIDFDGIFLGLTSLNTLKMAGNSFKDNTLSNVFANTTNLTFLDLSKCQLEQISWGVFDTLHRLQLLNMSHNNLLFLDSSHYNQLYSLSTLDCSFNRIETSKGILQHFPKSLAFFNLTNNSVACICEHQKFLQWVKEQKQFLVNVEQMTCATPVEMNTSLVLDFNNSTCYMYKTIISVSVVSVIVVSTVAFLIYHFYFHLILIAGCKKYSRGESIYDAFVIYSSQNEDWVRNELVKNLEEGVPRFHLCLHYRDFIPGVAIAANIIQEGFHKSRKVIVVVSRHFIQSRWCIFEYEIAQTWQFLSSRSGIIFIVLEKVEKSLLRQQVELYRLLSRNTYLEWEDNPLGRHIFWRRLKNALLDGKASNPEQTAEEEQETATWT

Tests used:
[1] = target: T1, Fcα/μR (CD351), endogenous in primary MZ B cells (mouse (endogenous in MZ B cells)) (UniProt Q2TB54); test: proximity ligation; MZ B cells from WT and Fcα/μR-KO mice fixed with acetone; anti-Fcα/μR TX57 and rabbit anti-TLR4 (ab13556); Duolink in situ PLA; fluorescence microscopy
T1 sequence: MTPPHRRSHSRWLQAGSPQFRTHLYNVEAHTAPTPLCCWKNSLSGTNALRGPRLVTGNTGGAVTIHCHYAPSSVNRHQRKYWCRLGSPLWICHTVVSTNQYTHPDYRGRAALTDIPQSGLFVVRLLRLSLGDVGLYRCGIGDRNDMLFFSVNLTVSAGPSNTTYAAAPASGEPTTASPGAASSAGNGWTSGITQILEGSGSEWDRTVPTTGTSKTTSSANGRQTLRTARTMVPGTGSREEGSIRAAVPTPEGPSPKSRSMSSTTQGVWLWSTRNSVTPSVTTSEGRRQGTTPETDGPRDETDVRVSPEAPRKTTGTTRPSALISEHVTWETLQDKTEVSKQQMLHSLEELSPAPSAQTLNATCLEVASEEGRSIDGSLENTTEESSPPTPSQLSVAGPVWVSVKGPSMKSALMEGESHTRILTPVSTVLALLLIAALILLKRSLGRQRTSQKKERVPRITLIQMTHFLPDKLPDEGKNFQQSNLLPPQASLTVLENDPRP

[2] = target: Flag-tagged TLR4 (UniProt Q9QUK6); test: co-IP; Ba/F3 transfectants, with or without Fcα/μR WT, TM-mt or ΔCyt, stimulated with 1 μg/ml LPS for 10 or 30 min; lysed in 50 mM Tris-HCl pH 7.6, 150 mM NaCl, 25 mM CaCl2, 0.5% Triton X-100; IP anti-Flag, blot anti-GFP
[3] = target: T2, HA-tagged WT Fcα/μR (CD351) (UniProt Q2TB54); test: co-IP; Ba/F3 transfectants lysed in 1% digitonin, 0.12% Triton X-100, 150 mM NaCl, 20 mM triethanolamine; IP anti-HA and blot anti-Flag by the legend (the methods say IP anti-Flag, blot anti-HA); with or without LPS stimulation
T2 sequence: T1 sequence

Row | binding [1] | binding [2] | binding [3] | Substance
1 | binds | – | – | TLR4, endogenous in primary MZ B cells (from UniProt Q9QUK6 26-835) (receptor)
2 | – | binds | binds | Flag-tagged TLR4 (from UniProt Q9QUK6 26-835) (receptor)
